The labels stand for the following.
T1: StrepII-tagged GIGYF2 (GRB10 interacting GYF protein 2) (human) (UniProt Q6Y7W6)
T1 sequence: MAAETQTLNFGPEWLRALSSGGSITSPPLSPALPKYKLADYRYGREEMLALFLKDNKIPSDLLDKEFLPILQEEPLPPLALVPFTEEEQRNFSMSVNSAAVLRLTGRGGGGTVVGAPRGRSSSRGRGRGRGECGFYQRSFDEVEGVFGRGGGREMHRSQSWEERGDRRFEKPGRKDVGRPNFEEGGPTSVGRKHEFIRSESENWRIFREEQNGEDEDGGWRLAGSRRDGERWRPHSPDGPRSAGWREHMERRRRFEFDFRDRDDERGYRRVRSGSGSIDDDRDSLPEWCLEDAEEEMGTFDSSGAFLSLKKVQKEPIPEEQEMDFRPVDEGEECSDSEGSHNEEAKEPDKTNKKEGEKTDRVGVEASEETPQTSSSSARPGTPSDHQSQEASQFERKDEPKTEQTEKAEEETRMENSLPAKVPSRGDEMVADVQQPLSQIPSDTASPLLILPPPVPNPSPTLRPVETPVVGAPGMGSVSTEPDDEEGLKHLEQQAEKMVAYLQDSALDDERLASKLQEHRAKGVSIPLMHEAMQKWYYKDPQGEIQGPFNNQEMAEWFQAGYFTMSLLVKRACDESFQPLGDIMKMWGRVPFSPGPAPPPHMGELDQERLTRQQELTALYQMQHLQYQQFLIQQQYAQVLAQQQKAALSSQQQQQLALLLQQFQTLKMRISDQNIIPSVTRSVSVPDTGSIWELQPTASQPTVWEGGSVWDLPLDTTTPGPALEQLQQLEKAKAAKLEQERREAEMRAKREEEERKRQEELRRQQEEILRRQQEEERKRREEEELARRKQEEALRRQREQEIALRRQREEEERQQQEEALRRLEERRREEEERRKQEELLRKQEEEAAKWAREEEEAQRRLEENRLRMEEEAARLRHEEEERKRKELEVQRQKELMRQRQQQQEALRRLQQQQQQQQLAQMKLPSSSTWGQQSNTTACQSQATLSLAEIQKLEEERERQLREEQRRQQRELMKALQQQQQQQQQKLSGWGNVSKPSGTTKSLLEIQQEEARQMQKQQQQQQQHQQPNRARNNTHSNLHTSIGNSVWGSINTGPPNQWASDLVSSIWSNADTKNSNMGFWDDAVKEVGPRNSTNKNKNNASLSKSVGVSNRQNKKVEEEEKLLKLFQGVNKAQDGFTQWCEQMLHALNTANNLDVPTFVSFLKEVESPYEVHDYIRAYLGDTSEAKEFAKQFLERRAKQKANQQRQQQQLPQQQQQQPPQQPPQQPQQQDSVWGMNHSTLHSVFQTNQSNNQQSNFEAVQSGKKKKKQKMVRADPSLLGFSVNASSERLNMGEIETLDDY

Amino acid sequences for entries named in this document (tags omitted).
UniProt O15234: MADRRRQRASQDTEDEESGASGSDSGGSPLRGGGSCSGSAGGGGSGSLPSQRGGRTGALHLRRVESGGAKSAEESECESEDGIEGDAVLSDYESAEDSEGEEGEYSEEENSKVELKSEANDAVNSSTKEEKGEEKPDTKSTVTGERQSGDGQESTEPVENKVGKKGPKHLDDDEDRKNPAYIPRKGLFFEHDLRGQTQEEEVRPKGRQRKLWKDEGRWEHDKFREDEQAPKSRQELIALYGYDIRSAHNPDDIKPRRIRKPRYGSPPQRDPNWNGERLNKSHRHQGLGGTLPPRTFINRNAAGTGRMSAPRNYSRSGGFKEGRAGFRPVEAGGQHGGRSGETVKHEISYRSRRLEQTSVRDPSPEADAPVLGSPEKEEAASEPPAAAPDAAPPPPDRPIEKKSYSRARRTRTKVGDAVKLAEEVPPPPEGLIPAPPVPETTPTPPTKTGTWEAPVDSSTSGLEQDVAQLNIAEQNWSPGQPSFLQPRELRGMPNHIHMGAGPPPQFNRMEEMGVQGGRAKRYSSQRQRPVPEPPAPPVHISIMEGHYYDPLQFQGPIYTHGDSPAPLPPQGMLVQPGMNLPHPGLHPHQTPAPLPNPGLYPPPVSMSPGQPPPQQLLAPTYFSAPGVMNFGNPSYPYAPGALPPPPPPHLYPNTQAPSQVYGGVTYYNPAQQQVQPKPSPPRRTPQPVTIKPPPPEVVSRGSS
UniProt O60573: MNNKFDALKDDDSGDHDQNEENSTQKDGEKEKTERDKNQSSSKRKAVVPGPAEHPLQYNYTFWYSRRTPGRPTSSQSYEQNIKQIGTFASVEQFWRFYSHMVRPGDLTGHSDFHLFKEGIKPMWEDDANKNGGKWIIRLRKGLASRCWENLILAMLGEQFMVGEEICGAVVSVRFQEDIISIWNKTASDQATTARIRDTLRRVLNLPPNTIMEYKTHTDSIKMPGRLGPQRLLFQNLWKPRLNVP
UniProt Q96Q15: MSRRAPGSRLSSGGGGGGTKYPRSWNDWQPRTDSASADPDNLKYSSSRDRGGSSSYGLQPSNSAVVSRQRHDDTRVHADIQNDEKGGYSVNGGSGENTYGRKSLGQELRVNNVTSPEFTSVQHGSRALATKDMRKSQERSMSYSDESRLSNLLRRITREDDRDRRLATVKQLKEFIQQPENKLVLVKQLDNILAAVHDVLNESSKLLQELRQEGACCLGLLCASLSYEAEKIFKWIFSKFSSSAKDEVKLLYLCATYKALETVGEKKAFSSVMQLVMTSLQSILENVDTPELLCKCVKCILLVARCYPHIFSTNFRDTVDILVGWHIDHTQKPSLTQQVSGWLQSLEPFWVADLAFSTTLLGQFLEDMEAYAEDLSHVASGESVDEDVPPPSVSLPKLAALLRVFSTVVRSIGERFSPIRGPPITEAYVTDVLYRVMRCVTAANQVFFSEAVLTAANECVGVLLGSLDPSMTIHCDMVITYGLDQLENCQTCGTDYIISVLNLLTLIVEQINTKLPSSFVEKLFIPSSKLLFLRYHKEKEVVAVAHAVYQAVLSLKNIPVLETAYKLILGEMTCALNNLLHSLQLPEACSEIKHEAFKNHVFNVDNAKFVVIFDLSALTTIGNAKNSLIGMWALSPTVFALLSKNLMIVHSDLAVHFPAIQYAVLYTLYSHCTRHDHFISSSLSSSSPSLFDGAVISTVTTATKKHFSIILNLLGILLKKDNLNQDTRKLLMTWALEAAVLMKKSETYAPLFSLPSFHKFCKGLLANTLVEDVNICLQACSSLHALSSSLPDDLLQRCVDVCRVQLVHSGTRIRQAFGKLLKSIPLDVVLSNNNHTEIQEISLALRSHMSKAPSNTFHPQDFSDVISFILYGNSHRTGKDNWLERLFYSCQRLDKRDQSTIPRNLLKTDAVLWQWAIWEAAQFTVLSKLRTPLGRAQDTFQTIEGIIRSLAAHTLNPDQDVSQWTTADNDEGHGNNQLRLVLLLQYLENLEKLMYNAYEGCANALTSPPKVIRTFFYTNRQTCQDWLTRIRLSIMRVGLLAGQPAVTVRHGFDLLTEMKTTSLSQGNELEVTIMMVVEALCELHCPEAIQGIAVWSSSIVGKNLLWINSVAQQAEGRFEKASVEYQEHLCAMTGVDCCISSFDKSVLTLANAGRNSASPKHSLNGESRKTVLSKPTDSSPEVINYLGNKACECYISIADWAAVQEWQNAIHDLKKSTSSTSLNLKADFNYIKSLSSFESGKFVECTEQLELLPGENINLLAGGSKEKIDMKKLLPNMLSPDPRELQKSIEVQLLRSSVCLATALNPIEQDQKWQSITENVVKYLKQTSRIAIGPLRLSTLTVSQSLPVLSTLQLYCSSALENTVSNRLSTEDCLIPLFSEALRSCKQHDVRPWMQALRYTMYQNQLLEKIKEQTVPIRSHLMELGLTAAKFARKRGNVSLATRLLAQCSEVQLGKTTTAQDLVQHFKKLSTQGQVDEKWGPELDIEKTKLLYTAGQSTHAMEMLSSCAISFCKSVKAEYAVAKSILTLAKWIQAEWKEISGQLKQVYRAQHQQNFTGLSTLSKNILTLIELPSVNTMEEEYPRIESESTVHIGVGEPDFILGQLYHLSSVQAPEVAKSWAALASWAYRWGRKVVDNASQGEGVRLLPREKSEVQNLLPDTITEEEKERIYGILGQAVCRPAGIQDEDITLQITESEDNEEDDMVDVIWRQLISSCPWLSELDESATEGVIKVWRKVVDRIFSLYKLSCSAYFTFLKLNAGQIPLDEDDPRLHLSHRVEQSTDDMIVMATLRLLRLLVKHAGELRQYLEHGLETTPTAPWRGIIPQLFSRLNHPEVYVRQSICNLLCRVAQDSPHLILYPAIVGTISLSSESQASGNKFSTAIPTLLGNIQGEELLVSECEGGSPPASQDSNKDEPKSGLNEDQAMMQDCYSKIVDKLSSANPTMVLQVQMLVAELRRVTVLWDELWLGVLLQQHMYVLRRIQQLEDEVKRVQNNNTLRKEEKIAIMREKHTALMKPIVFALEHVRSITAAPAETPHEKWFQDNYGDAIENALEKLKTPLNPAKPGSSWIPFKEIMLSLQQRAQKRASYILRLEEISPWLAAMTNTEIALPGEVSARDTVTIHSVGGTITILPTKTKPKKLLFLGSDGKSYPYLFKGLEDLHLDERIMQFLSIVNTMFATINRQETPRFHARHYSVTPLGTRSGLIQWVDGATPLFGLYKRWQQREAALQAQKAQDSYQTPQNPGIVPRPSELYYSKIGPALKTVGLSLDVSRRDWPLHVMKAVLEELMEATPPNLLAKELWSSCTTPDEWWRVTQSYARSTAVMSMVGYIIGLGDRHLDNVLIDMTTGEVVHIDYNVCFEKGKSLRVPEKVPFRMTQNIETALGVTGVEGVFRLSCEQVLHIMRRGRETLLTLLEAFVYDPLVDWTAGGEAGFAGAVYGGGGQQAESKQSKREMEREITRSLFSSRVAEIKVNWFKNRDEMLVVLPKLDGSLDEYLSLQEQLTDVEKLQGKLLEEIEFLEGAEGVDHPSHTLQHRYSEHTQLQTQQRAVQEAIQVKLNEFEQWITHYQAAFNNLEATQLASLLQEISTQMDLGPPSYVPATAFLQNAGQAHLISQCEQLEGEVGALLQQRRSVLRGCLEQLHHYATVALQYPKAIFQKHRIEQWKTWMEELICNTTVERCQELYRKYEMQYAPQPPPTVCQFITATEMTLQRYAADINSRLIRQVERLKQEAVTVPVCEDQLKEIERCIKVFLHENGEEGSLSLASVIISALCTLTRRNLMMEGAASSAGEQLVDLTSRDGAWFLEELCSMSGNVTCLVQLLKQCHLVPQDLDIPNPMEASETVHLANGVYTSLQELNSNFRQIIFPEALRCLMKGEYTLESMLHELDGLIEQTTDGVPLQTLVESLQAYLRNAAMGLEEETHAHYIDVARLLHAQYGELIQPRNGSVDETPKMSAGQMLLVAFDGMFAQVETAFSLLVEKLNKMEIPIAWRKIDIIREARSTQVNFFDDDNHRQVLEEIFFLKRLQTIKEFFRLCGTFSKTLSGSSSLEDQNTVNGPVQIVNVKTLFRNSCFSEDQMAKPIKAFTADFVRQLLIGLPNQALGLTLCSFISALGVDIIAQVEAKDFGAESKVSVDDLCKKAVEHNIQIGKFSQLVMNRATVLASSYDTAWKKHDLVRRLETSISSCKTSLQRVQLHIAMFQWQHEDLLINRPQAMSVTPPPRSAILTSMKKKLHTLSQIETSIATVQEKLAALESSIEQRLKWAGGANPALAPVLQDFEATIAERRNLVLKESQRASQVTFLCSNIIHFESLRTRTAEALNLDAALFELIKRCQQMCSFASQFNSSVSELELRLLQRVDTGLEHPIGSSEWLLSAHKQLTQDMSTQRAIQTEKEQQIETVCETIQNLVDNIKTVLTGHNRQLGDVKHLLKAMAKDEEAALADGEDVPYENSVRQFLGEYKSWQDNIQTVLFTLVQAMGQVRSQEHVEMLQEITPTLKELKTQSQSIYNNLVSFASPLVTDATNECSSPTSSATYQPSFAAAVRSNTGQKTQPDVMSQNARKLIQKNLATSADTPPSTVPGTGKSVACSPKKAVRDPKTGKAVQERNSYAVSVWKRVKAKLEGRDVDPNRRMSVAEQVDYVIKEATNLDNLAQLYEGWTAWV

B1: UPF3B (protein, UniProt Q9BZI7 1-483)
chain: MKEEKEHRPKEKRVTLLTPAGATGSGGGTSGDSSKGEDKQDRNKEKKEALSKVVIRRLPPTLTKEQLQEHLQPMPEHDYFEFFSNDTSLYPHMYARAYINFKNQEDIILFRDRFDGYVFLDNKGQEYPAIVEFAPFQKAAKKKTKKRDTKVGTIDDDPEYRKFLESYATDNEKMTSTPETLLEEIEAKNRELIAKKTTPLLSFLKNKQRMREEKREERRRREIERKRQREEERRKWKEEEKRKRKDIEKLKKIDRIPERDKLKDEPKIKVHRFLLQAVNQKNLLKKPEKGDEKELDKREKAKKLDKENLSDERASGQSCTLPKRSDSELKDEKPKRPEDESGRDYREREREYERDQERILRERERLKRQEEERRRQKERYEKEKTFKRKEEEMKKEKDTLRDKGKKAESTESIGSSEKTEKKEEVVKRDRIRNKDRPAMQLYQPGARSRNRLCPPDDSTKSGDSAAERKQESGISHRKEGGEE

These are yes or no findings as the source states them, for the method shown. In cells and extracts the contact can be indirect. A yes stands for co-enrichment or nearness to the bait. Other partners may have been found. Sequences can lack the tags named with a protein.

The target in this assay is T1, StrepII-tagged GIGYF2 (GRB10 interacting GYF protein 2) (human). In words: affinity purification with mass spectrometry; StrepII-GIGYF2 captured from HEK293T lysate on MagStrep type 3 XT beads, 1 h, 4°C; lysis buffer 50 mM HEPES pH 7.4, 100 mM KOAc, 15 mM Mg(OAc)2, 5% glycerol, 0.5% Triton-X-100; eluted with biotin (Buffer BXT); LFQ intensity compared with a mock transfection; also with RNase A treatment of lysates, or cells treated with spliceostatin A (100 ng/ml, 16 h) or SMG1i (300 nM, 4 h).
As to CASC3 (from UniProt O15234 1-703), the binding entry is “binds”.
In the case of “EIF4E2 (eukaryotic initiation factor 4E2) (from UniProt O60573 1-245)”, the binding entry is given as “binds”.
With SMG1 (from UniProt Q96Q15 1-3661) the entry was “binds”; with B1, “binds”.

These data come from paper PMC8555832.
